Measured values published in the supplement of paper PMC7666118.
Some of the results follow.

Amino acid sequences for entries named in this document (tags omitted). A change or cut given only in a name is not applied to a line headed by its entry.
UniProt Q12772: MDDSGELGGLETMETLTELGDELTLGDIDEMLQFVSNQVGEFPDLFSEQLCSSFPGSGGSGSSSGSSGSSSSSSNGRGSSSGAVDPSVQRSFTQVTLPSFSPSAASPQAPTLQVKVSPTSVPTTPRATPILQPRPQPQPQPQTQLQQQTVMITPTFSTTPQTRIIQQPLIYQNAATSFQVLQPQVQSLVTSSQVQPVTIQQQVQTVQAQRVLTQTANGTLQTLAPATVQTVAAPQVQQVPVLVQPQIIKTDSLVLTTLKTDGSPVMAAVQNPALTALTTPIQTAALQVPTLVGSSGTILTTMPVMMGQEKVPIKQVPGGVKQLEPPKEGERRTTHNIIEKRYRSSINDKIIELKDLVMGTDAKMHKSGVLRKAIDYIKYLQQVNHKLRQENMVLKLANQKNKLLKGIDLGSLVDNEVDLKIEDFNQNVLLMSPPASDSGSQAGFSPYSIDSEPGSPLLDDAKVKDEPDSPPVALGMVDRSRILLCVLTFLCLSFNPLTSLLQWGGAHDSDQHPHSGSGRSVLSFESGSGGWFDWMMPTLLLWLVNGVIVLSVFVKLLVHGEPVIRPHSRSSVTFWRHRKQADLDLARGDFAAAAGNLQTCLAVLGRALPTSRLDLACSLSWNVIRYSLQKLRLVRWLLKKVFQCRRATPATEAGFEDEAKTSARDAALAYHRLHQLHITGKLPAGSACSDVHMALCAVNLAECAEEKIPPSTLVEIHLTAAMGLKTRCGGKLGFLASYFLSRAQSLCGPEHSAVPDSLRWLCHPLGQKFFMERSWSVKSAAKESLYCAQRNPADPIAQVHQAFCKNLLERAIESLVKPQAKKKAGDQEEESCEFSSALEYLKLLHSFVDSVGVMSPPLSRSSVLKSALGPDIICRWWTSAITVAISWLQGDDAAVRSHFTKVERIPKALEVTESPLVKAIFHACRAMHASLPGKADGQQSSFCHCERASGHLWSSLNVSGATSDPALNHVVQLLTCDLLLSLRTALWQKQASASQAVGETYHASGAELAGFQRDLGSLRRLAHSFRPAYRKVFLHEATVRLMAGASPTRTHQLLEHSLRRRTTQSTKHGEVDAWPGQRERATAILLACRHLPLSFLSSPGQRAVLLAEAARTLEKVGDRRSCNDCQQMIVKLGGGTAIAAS
UniProt O75391: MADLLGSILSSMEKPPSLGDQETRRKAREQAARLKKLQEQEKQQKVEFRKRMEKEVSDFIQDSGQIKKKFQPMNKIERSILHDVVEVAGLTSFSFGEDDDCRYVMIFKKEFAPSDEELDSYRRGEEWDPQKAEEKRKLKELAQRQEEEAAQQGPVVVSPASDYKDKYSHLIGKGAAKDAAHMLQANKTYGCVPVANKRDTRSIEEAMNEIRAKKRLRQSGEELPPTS
UniProt Q14241: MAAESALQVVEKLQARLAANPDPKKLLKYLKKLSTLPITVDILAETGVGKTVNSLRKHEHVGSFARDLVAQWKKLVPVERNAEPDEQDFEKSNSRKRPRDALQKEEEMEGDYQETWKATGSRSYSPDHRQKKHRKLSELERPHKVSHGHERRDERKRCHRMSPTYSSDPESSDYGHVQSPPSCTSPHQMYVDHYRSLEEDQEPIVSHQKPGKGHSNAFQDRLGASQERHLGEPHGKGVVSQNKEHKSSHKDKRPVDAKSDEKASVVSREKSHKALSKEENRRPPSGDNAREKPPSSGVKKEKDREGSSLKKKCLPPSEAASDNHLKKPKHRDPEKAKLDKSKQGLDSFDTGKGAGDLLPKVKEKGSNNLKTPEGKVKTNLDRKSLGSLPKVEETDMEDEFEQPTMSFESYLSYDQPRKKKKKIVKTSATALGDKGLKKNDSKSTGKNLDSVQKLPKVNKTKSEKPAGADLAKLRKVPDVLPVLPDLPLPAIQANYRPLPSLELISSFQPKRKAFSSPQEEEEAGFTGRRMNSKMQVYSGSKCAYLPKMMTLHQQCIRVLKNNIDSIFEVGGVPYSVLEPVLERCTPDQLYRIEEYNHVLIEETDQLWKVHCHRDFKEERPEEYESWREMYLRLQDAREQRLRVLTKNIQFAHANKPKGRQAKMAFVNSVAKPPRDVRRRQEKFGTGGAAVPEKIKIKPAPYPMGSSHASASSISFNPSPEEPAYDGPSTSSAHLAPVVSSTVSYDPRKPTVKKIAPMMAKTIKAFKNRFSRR
UniProt P20226, whole entry: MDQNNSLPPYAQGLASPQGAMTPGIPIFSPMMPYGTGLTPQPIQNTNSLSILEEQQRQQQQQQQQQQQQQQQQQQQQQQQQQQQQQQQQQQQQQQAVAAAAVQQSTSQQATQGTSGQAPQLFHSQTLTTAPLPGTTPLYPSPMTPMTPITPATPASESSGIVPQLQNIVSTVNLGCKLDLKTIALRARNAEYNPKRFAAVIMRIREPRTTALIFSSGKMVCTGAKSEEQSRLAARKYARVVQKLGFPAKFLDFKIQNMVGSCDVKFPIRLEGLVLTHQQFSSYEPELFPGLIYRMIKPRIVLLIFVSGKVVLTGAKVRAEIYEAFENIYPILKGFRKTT
UniProt Q9Y4P3: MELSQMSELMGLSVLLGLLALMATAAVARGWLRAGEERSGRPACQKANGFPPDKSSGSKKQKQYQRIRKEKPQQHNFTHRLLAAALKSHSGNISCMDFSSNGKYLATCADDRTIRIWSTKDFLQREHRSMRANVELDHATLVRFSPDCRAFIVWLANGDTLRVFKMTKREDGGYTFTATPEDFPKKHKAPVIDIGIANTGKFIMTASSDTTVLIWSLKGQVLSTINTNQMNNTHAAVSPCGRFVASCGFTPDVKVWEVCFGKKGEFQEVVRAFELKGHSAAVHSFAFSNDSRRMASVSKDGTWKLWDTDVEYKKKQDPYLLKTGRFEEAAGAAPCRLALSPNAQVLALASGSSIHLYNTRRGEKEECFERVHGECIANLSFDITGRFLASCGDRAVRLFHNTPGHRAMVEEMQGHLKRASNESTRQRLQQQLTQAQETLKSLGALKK
UniProt P61009: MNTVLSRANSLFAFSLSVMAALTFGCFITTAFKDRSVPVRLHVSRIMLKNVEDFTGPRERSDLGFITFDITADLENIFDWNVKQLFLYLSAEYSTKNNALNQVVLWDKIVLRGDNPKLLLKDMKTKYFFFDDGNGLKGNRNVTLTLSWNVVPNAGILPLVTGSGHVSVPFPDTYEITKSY
UniProt P16949: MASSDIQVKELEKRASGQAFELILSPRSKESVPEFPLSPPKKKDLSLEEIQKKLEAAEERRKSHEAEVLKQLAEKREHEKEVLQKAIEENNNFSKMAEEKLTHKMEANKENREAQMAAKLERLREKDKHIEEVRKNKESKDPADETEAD
UniProt O76061, whole entry: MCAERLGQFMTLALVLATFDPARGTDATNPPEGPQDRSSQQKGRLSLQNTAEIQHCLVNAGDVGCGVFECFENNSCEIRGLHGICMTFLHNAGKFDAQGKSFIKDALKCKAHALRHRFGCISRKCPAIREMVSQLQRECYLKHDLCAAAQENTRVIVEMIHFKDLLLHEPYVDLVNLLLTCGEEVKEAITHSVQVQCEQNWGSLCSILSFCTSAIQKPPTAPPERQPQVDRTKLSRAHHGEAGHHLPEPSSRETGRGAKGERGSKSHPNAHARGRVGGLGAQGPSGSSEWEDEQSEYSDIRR
UniProt Q9NUW8, whole entry: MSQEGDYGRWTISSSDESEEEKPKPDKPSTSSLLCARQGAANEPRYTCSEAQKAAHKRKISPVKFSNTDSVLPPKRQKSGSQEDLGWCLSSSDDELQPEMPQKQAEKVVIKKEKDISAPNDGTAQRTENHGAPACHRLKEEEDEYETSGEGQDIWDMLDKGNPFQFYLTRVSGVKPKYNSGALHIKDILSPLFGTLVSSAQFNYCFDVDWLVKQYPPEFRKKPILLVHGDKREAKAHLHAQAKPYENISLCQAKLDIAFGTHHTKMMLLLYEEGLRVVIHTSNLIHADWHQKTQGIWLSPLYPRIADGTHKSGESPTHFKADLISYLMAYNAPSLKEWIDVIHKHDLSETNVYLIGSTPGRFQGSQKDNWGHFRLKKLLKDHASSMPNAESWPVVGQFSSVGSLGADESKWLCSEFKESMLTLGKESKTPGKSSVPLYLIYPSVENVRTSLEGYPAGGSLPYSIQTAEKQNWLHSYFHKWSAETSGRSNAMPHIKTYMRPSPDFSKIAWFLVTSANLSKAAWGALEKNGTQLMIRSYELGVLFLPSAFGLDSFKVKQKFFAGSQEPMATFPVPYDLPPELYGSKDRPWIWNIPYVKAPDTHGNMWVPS
UniProt Q9H6P5: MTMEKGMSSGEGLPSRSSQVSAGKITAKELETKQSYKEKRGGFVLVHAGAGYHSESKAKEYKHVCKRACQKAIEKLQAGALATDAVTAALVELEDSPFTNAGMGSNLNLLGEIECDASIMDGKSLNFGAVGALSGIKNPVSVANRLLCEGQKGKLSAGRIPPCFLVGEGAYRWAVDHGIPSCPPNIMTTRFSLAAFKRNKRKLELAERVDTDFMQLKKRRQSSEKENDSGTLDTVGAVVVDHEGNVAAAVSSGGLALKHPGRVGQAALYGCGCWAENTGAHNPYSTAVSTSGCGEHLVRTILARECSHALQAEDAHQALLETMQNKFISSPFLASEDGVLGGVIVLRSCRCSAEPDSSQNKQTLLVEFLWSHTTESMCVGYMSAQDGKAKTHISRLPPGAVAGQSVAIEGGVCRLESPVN
UniProt O43493: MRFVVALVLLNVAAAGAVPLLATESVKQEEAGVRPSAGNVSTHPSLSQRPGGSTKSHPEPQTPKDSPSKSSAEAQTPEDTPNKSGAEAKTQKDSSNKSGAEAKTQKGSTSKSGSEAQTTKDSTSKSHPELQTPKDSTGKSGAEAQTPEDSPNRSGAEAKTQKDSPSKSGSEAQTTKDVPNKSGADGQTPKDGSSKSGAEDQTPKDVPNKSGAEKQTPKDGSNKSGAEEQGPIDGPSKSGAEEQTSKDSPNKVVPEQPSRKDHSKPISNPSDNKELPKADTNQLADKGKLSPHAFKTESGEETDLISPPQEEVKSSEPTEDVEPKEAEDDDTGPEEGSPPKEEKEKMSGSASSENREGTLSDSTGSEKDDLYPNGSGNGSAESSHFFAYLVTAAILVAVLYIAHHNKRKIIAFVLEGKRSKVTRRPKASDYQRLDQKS
UniProt O43426, whole entry: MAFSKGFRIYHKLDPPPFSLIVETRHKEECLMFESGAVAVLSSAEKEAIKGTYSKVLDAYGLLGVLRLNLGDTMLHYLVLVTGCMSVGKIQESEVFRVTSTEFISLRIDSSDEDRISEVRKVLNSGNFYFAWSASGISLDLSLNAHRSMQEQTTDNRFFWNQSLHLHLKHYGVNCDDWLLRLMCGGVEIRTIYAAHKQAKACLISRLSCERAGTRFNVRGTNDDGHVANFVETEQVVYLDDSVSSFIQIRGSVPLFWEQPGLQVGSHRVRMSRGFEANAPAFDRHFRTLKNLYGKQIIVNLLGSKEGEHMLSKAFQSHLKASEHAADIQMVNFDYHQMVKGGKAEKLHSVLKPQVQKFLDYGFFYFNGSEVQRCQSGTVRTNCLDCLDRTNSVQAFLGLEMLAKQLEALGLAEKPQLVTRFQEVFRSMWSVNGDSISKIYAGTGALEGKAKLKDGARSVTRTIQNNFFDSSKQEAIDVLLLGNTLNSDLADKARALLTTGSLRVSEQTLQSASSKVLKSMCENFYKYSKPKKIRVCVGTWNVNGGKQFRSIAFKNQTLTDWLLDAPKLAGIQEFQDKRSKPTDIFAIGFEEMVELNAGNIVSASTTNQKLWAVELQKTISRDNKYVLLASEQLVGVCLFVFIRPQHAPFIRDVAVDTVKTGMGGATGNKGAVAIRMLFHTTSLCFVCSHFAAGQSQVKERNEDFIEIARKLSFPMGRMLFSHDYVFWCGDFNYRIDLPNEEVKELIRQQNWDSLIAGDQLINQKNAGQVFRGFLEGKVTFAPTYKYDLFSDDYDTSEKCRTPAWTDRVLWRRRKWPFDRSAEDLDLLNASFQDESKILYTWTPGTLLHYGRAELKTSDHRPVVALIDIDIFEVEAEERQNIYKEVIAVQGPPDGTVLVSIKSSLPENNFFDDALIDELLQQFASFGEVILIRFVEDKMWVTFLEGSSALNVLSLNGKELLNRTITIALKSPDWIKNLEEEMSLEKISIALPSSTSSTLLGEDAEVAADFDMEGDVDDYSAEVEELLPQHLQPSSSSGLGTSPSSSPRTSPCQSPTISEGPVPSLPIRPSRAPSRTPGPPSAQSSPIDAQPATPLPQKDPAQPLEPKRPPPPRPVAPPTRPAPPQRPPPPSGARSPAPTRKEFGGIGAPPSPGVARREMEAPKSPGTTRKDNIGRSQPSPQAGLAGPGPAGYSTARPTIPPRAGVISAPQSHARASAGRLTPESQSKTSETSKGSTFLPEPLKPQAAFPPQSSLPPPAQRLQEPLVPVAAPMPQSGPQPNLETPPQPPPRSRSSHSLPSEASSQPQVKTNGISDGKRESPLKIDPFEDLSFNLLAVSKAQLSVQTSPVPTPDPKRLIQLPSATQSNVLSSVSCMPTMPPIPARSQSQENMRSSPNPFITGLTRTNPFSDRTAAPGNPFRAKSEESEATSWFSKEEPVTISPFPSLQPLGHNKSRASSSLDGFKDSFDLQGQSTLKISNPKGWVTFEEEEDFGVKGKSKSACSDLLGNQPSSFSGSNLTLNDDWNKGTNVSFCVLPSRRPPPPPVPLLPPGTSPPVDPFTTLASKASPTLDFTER

compound: COc1ccc(Cn2ccc3cc(C)c(C(=O)NO)cc32)cc1; test: dose-dependent thermal stabilisation call (2D-TPP, DLPTP, 10% FDR) (binary (1 = stabilised)); higher = stabilised by the compound; conditions: system: HL-60 intact cells; concentration range 0.04-10 µM
Method: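 2D thermal proteome profiling in intact HL-60 cells treated with BRD-3811 (0, 0.04, 0.29, 2, 10 uM) for 90 min at 37 C, then heated 3 min at one of 12 temperatures (42-63.9 C). Soluble protein was quantified by TMT10 MS. The value is the DLPTP call of the paper: dose-dependent thermal stabilisation over all temperatures at 10% FDR (F-test of a dose-response against a flat model); one experiment, one call per tested protein.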

Row | Target | dose-dependent thermal stabilisation call
1 | SREBF2 (UniProt Q12772) | inactive: 0
2 | SPAG7 (UniProt O75391) | inactive: 0
3 | TCEB3 (UniProt Q14241) | inactive: 0
4 | STK10 (UniProt O94804) | inactive: 0
5 | TARSL2 (UniProt A2RTX5) | inactive: 0
6 | TBP (UniProt P20226) | inactive: 0
7 | TBL2 (UniProt Q9Y4P3) | inactive: 0
8 | TBCEL (UniProt Q5QJ74) | inactive: 0
9 | TAOK2 (UniProt Q9UL54) | inactive: 0
10 | TDRD7 (UniProt Q8NHU6) | inactive: 0
11 | TBRG4 (UniProt Q969Z0) | inactive: 0
12 | SYNCRIP (UniProt O60506) | inactive: 0
13 | SORL1 (UniProt Q92673) | inactive: 0
14 | SPCS3 (UniProt P61009) | inactive: 0
15 | STMN1 (UniProt P16949) | inactive: 0
16 | TARDBP (UniProt Q13148) | inactive: 0
17 | STK17B (UniProt O94768) | inactive: 0
18 | TBC1D5 (UniProt Q92609) | inactive: 0
19 | STC2 (UniProt O76061) | inactive: 0
20 | TDP1 (UniProt Q9NUW8) | inactive: 0

Row | Target | dose-dependent thermal stabilisation call
21 | SRPR (UniProt P08240) | active: 1
22 | SRA1 (UniProt Q9HD15) | inactive: 0
23 | SQRDL (UniProt Q9Y6N5) | inactive: 0
24 | SWAP70 (UniProt Q9UH65) | inactive: 0
25 | STRA13 | inactive: 0
26 | TASP1 (UniProt Q9H6P5) | inactive: 0
27 | SOLH (UniProt O75808) | inactive: 0
28 | TFIP11 (UniProt Q9UBB9) | inactive: 0
29 | SPC25 (UniProt Q9HBM1) | inactive: 0
30 | TAP2 (UniProt Q03519) | inactive: 0
31 | STK25 (UniProt O00506) | inactive: 0
32 | STK38 (UniProt Q15208) | inactive: 0
33 | SR140 (UniProt O15042) | inactive: 0
34 | STAT3 (UniProt P40763) | inactive: 0
35 | TATDN1 (UniProt Q6P1N9) | inactive: 0
36 | SSNA1 (UniProt O43805) | inactive: 0
37 | TGOLN2 (UniProt O43493) | inactive: 0
38 | TBC1D15 (UniProt Q8TC07) | inactive: 0
39 | SP1 (UniProt P08047) | inactive: 0
40 | SYNJ1 (UniProt O43426) | inactive: 0

As a working copy, some entries already given.
Row | Target | dose-dependent thermal stabilisation call
15 | STMN1 (UniProt P16949) | inactive: 0
16 | TARDBP (UniProt Q13148) | inactive: 0
